Measured values taken from PubChem BioAssay AID445 (National Center for Advancing Translational Sciences (NCATS), 2006).
Some of the results follow. The main result of the screen is listed elsewhere. These columns were measured beside it and carry no call. The list favours compounds with an active or inconclusive main result. The note in brackets gives the kind of curve behind each potency; many fits are weak. *1 amine or outer side, *2 acyl side, *3 side chain or, on linkers, in order; H or OH if unused. Where a SMILES comes first, the peptide text is derived from it. Bridges are numbered along the chain shown (N, C = ends). Roman numbers before positions name the chains, in order. [ ]: non-standard residue; d: D form. Actinocin(9to1) = Cc1c2oc3c(C)ccc(C(=O)[*:1])c3nc-2c(C(=O)[*:2])c(N)c1=O; NMeV = CN[C@H](C(=O)O)C(C)C; Sar = CNCC(=O)O

Assay: IkB Signaling
Conditions: ABC-DLBCL IkBa-CBG/CBR dual luciferase ratio (green luciferase fused to IkBa over red control in OCI-Ly3 lymphoma cells), 4 h; measured here: control luc red channel unless noted
Procedure, shortened: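 In this assay, an IκBα–CBG68 fusion accumulates when IKK-driven degradation is blocked; native CBR normalizes for cell number. OCI-Ly3 cells were treated 4 h with compound and doxycycline, then green and red light read after Chroma-Glo addition.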
In the case of `O=C(Oc1ccc(-c2ccccc2)cc1)N1CCOCC1`, the AC50 is reported as 20 µM [falling, single point].
For `CC(C)n1c(NCc2c[nH]c3ccccc23)nc2ccccc21`, the AC50 was 15.8 µM [falling, partial curve].
For `CCOC(=O)c1ccc(N2C(=O)c3n[nH]c(-c4ccco4)c3C2c2cccc(O)c2)cc1` (stereo not given), the AC50 was 15.8 µM [falling, partial curve].
In the case of `Cc1ccccc1CCNC(=O)c1ccc2c(c1)nc1n2CCCCC1`, the AC50 is reported as 0.0126 µM [falling, full curve, poor fit].
In the case of `Cc1ccc(-c2nc3ccccc3o2)cc1NC(=O)Cc1ccc(Cl)cc1`, the AC50 is reported as 25.1 µM [falling, partial curve, poor fit].
In the case of `Cc1cccc(-c2nc(CN3CCCC(C(=O)NCCc4ccc(Cl)cc4)C3)c(C)o2)c1` (stereo not given), the AC50 is reported as 25.1 µM [falling, partial curve].
In the case of `COC(=O)c1ccccc1NC(=O)CSc1nc(C)c(Cl)c(C)c1C#N`, the AC50 is reported as 12.6 µM [falling, partial curve].
With `O=[N+]([O-])c1cccc(/C=N\Nc2ccc3ccccc3n2)c1O` the AC50 was 0.0126 µM [falling, full curve].
In the case of `CCOC(=O)c1cccc(NC(=O)c2cnc3sc(N4CCOCC4)nn3c2=O)c1`, the AC50 is reported as 3.98 µM [falling, partial curve].
For `O=C(Nc1cccc(F)c1)N1CC=C(n2c(=O)[nH]c3ccccc32)CC1`, the AC50 was 12.6 µM [falling, partial curve].
With `O=C(NCc1ccccc1)C(=O)Nc1c2c(nn1-c1ccccc1)CSC2` the AC50 was 39.8 µM [falling, single point].
In the case of `Cc1ccc(C(c2c(O)cc(C)n(Cc3ccco3)c2=O)N2CCC(C)CC2)cc1` (stereo not given), the AC50 is reported as 1 µM [falling, partial curve].
For `O=C(Nc1cc2c(cc1C(=O)c1ccccc1Br)OCCO2)c1cccc(Cl)c1`, the AC50 was 31.6 µM [falling, partial curve, poor fit].
With `COc1ccc(N2C(=O)CSC23C(=O)N(Cc2cccc(F)c2)c2ccccc23)cc1Cl` (stereo not given) the AC50 was 15.8 µM [falling, partial curve].
With `CC1(C)Cc2c(C#N)c(N)sc(=S)c2CS1` the AC50 was 39.8 µM [rising, single point] [measured here: IkB-luc green channel].
With `Cc1nc(-n2nc(C)c(CCC(C)C)c2C)sc1C(=O)Nc1ccc(Cl)cc1` the AC50 was 1 µM [falling, full curve, poor fit].
For `CCC(C)NC(=O)c1sc2nc(C)c(C(=O)Nc3ccc(C)cc3C)c(-c3ccc(NC(C)=O)cc3)c2c1N` (stereo not given), the AC50 was 31.6 µM [falling, partial curve].
With `Cc1ccc2nc(NC(=O)CSc3nccn3Cc3ccc(F)cc3)sc2c1` the AC50 was 39.8 µM [falling, single point].
In the case of `O=C(O)c1ccc(Cn2c(SCc3ccc(F)cc3)nc3ccncc32)cc1`, the AC50 is reported as 12.6 µM [falling, partial curve].
In the case of `Cc1cc(NC(=O)CS(=O)(=O)c2cn(Cc3cccc(F)c3)c3ccccc23)no1`, the AC50 is reported as 10 µM [falling, partial curve].
For `COc1ccc(OC)c(S(=O)(=O)NCC(c2cccs2)S(=O)(=O)c2ccc(F)cc2)c1` (stereo not given), the AC50 was 25.1 µM [falling, partial curve].
With `Cc1ccccc1NC(=O)c1sc2nc3c(cc2c1N)CN(Cc1ccccc1)CC3` the AC50 was 3.16 µM [falling, partial curve].
With `CCOC(=O)c1ccc(NC(=O)CCc2nc(-c3ccccc3)no2)cc1` the AC50 was 15.8 µM [falling, partial curve].
In the case of `COc1cccc(N2CCN(C(=O)CN3CCSc4ccccc43)CC2)c1`, the AC50 is reported as 7.94 µM [falling, partial curve].
In the case of `O=C(O)CCc1nc(-c2ccc(Cl)cc2)no1`, the AC50 is reported as 5.01 µM [falling, partial curve].
In the case of `COc1ccc(CC(=O)N2CCc3cc(OC)c(OC)cc3C2COc2ccc3c(C)cc(=O)oc3c2)cc1OC` (stereo not given), the AC50 is reported as 0.1 µM [falling, partial curve].
In the case of `Cc1c2oc3c(C)ccc(C(=O)N[C@@H]4C(=O)N[C@H](C(C)C)C(=O)N5CCC[C@H]5C(=O)N(C)CC(=O)N(C)[C@@H](C(C)C)C(=O)O[C@@H]4C)c3nc-2c(C(=O)N[C@@H]2C(=O)N[C@H](C(C)C)C(=O)N3CCC[C@H]3C(=O)N(C)CC(=O)N(C)[C@@H](C(C)C)C(=O)O[C@@H]2C)c(N)c1=O` (I: T[dV]P[Sar][NMeV] / II: T[dV]P[Sar][NMeV]; ester I:1-I:C, II:1-II:C; linker I:N-II:N via Actinocin(9to1)), the AC50 is reported as 0.001 µM [falling, full curve].
For `Cc1cc2c(cc3c(SCC(=O)Nc4ccc(Cl)cc4F)nncn32)o1`, the AC50 was 10 µM [falling, partial curve].
In the case of `COc1ccc(CCN2C(=O)C3C4C=CC(C4)C3C2=O)cc1OC` (stereo not given), the AC50 is reported as 31.6 µM [rising, single point] [measured here: IkB-luc green channel].
With `CCc1cccc(C)c1Nc1c(-c2ccsc2)nc2ncccn12` the AC50 was 39.8 µM [falling, single point].
With `CCOc1c(Cl)cc(C(=O)N(Cc2ccc(N(C)C)cc2)Cc2ccco2)cc1Cl` the AC50 was 12.6 µM [falling, partial curve].
In the case of `COc1ccc(CNC(=O)C2CCCN(c3nnc(C)c4c(C)n(-c5ccc(C)cc5)nc34)C2)cc1` (stereo not given), the AC50 is reported as 12.6 µM [falling, partial curve].
With `CCC(Sc1nc2ncccc2o1)C(=O)Nc1ccc(OC)c(OC)c1` (stereo not given) the AC50 was 10 µM [falling, partial curve].
With `CCOc1ccccc1N(C)C(=O)c1c2c(nc3ccccc13)C(=O)N(C1CCCCC1)C2` the AC50 was 15.8 µM [falling, partial curve].
In the case of `Cc1cc(C)cc(NC(=O)c2c(C)oc3nc(C)nc(N4CCCC4)c23)c1`, the AC50 is reported as 15.8 µM [falling, partial curve].
In the case of `CCc1ccc(OCC(=O)Nc2ncn[nH]2)c(Br)c1`, the AC50 is reported as 1 µM [rising, full curve].
In the case of `O=C(Nc1nc(-c2ccccc2)cs1)c1cccs1`, the AC50 is reported as 10 µM [falling, partial curve].
With `COc1cccc(Cn2c(-c3nonc3NC(C)=O)nc3ccccc32)c1` the AC50 was 25.1 µM [falling, single point].
With `COc1cccc(-c2noc(-c3cc(C(C)C)[nH]n3)n2)c1OC` the AC50 was 0.316 µM [rising, full curve].
For `COc1ccccc1CNC(=O)CCNS(=O)(=O)c1ccc2c(c1)oc(=O)n2C`, the AC50 was 31.6 µM [falling, single point].
For `COc1ccc(-c2noc(C)c2-c2ccc3ccccc3n2)c(O)c1`, the AC50 was 20 µM [falling, partial curve].
With `O=C(COc1ccc(F)cc1)NCc1ccc2c(c1)CCN2C(=O)c1ccccc1` the AC50 was 39.8 µM [falling, single point].
For `CNC(=O)c1ccc2c(c1)N(Cc1ccccc1Cl)C(=O)c1ccccc1S2`, the AC50 was 25.1 µM [falling, partial curve].
In the case of `Cc1cccc(NC(=O)c2sc3nc(-c4cc5ccc(O)cc5oc4=O)[nH]c(=O)c3c2C)c1`, the AC50 is reported as 0.794 µM [falling, full curve].
For `O=C(Cn1c(=O)nc(-c2ccccc2F)c2cc(Cl)ccc21)NCCCc1ccccc1`, the AC50 was 25.1 µM [falling, partial curve].
With `Cc1nc(-n2nc(C)c(CCC(C)C)c2C)sc1C(=O)Nc1cccc(Cl)c1` the AC50 was 12.6 µM [falling, partial curve].
For `COc1ccc(Cl)cc1NC(=O)Cn1c(=O)c2ccccc2n2nncc12`, the AC50 was 31.6 µM [falling, partial curve].
For `Clc1ccc(NCc2nc3ccccc3n2CCOc2ccccc2)cc1`, the AC50 was 0.1 µM [falling, full curve].
In the case of `Cc1cccc(-n2nnnc2SC(C)C(=O)NCCC2=CCCCC2)c1` (stereo not given), the AC50 is reported as 10 µM [falling, partial curve].
In the case of `O=C(CCS(=O)(=O)c1cc(Br)cc2c1N(C(=O)C1CC1)CC2)NCc1ccco1`, the AC50 is reported as 25.1 µM [rising, single point] [measured here: IkB-luc green channel].
For `CCN(C(=O)CSc1nc2ccccc2nc1Cc1ccc(F)cc1)c1cccc(C)c1`, the AC50 was 39.8 µM [falling, partial curve].
In the case of `CC(=O)N1CCc2cc(S(=O)(=O)NC3CCCc4ccccc43)ccc21` (stereo not given), the AC50 is reported as 20 µM [falling, partial curve].
For `O=C(O)Cn1nnn(-c2ccccc2)c1=S`, the AC50 was 10 µM [falling, partial curve].
For `COc1ccc(C(=O)Nc2nc3ccccc3n2CCOc2ccc(Cl)cc2)cc1`, the AC50 was 2 µM [falling, full curve].
In the case of `CCOc1ccc(N(CC)C(=O)CCc2nc(-c3ccccc3F)no2)cc1`, the AC50 is reported as 39.8 µM [falling, single point].
In the case of `CCC(Sc1nnc(-c2ccc(OC)c(OC)c2)c(-c2ccc(OC)c(OC)c2)n1)C(=O)NC1CCCC1` (stereo not given), the AC50 is reported as 2.51 µM [rising, partial curve].
With `CCc1ccc(N/C(SCc2cccc(F)c2)=C(/C#N)C(=O)NCc2ccco2)cc1` the AC50 was 5.01 µM [falling, partial curve].
With `CCc1ccc(NC(=O)C(Cc2ccccc2)NS(=O)(=O)c2ccc3c(c2)c(=O)n(C)c(=O)n3C)cc1` (stereo not given) the AC50 was 15.8 µM [falling, partial curve].
For `CCCOc1ccc(Oc2nc(NCC(C)C)nc(N(C)C)n2)nn1`, the AC50 was 25.1 µM [falling, single point].
In the case of `CCn1c(SCC(=O)Nc2ccc3c(c2)c2ccccc2n3CC)nnc1-c1ccco1`, the AC50 is reported as 10 µM [falling, partial curve].
